Laboratory results published in patent publication US20230092389A1, “UNIT DOSES, AEROSOLS, KITS, AND METHODS FOR TREATING HEART CONDITIONS BY PULMONARY ADMINISTRATION” (InCarda Therapeutics, Inc., priority 2017, published 2023).

Tested on: healthy male volunteers
Assay: Taste and aftertaste of nebulized liquid aerosol (Aeroneb GO)
Parameters: species or system human
Settings: for Aftertaste: 5 minutes after the inhalation maneuver; for Taste: about 40 μl of test solution inhaled as aerosol, 2 volunteers

SMILES | Aftertaste | Taste
O=C(NCC1CCCCN1)c1cc(OCC(F)(F)F)ccc1OCC(F)(F)F (stereo not shown) [flecainide] | none to little aftertaste | Mildly bitter taste felt in the back of the tongue
COc1ccc([C@@H]2Sc3ccccc3N(CCN(C)C)C(=O)[C@@H]2OC(C)=O)cc1 [diltiazem] | none to little aftertaste | Mildly bitter taste felt in the back of the tongue
